Data taken from patent publication US20260097091A1, “ADMINISTRATION OF GLUTATHIONE TRISULFIDE TO AMELIORATE PERIPHERAL NEUROPATHY” (The General Hospital Corporation, priority 2022, published 2026).

Test system: sciatic nerve
Test: toluidine blue staining of sciatic nerve (myelinated axons, G-ratio)
Format: in vivo, mice (C57BL/6J)
Settings: 4 weeks; for number of myelinated neurons in sciatic nerve: paclitaxel alone or paclitaxel with GSSSG 50 mg/kg/day oral, vs control; for thickness of myelin (G-ratio): paclitaxel without or with GSSSG 50 mg/kg/day oral
Protocol: Paclitaxel (Sigma-Aldrich) was dissolved with ethanol and cremophor (1:1) and diluted with normal saline (1:4). Peripheral neuropathy was induced in mice by intraperitoneal (i.p.) administration of 4 mg/kg paclitaxel every other day for a total of 4 injections (cumulative dose of 16 mg/kg), according to a previously described protocol. A stable, crystallized form of GSSSG was produced and provided by Kyowa Hakko Bio CO., LTD. GSSSG was pulverized and mixed in 0.5% methylcellulose. To evaluate the therapeutic effects of GSSSG in a model of PIPN, mice were randomly divided into three groups of 6. Mice were treated with: 1) paclitaxel alone; 2) paclitaxel and GSSSG; 3) or vehicle alone (control). Mice in groups 1 and 2 received paclitaxel as described above, while mice in the control group received the same volume of vehicle. The first dose of GSSSG was given within 1 hour after the first PTX injection. Treatment was administered as oral gavage for 28 days with GSSSG at 50 mg/kg/day (group 2) or 0.5% methylcellulose (groups 1 and 3). The dose of GSSSG was determined based on pilot studies. To determine the effect of GSSSG on the development of PIPN, behavioral tests to assess allodynia and hyperalgesia were conducted on all mice on days-1 (baseline), 7, 14, 21, and 28 after paclitaxel administration. Behavioral tests were performed by an investigator who was blinded to the treatment groups, as described in the next section.
Four weeks after paclitaxel treatment, sciatic nerves were evaluated by toluidine blue staining as described previously. Briefly, mice were deeply anesthetized, and their sciatic nerves were exposed in the prone position. Sciatic nerve was covered with Trump's fixative (Quimigen, Cat No. 11750) for 10 minutes. Subsequently, it was harvested and fixed in the same fixative for one week by changing the fixative every other day. Samples were immersed in 2% osmium tetroxide (TGI, Cat No. O0308) for 2 hours and embedded in Resin-Epoxy medium (Sigma-Aldrich, Cat No. 45359-4) overnight at 60° C. by following the protocol provided by the manufacturer. The embedded nerve block was sectioned at 1 μm by an ultramicrotome (Reichert-Jung, Ultracut E, Austria) and stained in 1% toluidine blue (Sigma-Aldrich, Cat No. T3260). Two images per mouse (6 mice per group) were taken by light microscopy (Nikon Eclipse 80i, Nikon Instruments, Inc., Melville, NY) and analyzed by ImageJ. Thickness of myeline was evaluated by G-ratio, a ratio of inner radius over outer radius. G-ratio was calculated using GRatio software, an ImageJ plugin available online (http://gratio.efil.de/) that converts inner and outer perimeter of myelin to the radius. Counting neurons and measuring the size were conducted by an examiner who was blinded to the treatment of mice.

N[C@@H](CCC(=O)N[C@@H](CSSSC[C@H](NC(=O)CC[C@H](N)C(=O)O)C(=O)NCC(=O)O)C(=O)NCC(=O)O)C(=O)O [GSSSG, glutathione trisulfide]
number of myelinated neurons in sciatic nerve: similar
thickness of myelin (G-ratio): not affected

CC(=O)O[C@H]1C(=O)[C@@]2(C)[C@H]([C@H](OC(=O)c3ccccc3)[C@]3(O)C[C@H](OC(=O)[C@H](O)[C@@H](NC(=O)c4ccccc4)c4ccccc4)C(C)=C1C3(C)C)[C@]1(OC(C)=O)CO[C@@H]1C[C@@H]2O [paclitaxel, Paclitaxel, reference compound]
number of myelinated neurons in sciatic nerve: similar
thickness of myelin (G-ratio): not affected
